This is one part of the list.

The chains behind the UniProt entries cited, without tags or fusion partners. Where a name states a change or a piece, a line headed by the entry shows the natural chain unless it says otherwise.
UniProt P11766: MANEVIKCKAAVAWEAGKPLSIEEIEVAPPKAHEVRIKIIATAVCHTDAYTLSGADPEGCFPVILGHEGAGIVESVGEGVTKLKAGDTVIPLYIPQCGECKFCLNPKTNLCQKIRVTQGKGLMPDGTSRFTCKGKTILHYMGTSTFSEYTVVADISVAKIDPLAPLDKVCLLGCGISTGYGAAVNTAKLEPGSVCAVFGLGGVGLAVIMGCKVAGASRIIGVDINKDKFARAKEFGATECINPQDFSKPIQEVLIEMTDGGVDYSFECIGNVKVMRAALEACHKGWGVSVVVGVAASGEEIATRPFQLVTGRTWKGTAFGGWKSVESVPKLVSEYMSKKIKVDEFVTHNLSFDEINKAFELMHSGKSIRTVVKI
UniProt O96019, whole entry, looked up: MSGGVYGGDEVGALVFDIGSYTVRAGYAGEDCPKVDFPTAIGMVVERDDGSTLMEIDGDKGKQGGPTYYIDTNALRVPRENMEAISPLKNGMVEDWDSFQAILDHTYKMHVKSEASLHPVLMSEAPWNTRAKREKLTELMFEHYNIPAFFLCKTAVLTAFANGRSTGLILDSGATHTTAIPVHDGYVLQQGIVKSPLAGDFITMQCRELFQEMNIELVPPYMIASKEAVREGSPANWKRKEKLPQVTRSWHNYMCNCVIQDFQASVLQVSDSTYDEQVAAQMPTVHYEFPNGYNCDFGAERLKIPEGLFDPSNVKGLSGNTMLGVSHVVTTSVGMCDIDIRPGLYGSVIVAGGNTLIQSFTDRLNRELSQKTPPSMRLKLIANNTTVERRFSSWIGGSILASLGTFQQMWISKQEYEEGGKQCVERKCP
UniProt O60266: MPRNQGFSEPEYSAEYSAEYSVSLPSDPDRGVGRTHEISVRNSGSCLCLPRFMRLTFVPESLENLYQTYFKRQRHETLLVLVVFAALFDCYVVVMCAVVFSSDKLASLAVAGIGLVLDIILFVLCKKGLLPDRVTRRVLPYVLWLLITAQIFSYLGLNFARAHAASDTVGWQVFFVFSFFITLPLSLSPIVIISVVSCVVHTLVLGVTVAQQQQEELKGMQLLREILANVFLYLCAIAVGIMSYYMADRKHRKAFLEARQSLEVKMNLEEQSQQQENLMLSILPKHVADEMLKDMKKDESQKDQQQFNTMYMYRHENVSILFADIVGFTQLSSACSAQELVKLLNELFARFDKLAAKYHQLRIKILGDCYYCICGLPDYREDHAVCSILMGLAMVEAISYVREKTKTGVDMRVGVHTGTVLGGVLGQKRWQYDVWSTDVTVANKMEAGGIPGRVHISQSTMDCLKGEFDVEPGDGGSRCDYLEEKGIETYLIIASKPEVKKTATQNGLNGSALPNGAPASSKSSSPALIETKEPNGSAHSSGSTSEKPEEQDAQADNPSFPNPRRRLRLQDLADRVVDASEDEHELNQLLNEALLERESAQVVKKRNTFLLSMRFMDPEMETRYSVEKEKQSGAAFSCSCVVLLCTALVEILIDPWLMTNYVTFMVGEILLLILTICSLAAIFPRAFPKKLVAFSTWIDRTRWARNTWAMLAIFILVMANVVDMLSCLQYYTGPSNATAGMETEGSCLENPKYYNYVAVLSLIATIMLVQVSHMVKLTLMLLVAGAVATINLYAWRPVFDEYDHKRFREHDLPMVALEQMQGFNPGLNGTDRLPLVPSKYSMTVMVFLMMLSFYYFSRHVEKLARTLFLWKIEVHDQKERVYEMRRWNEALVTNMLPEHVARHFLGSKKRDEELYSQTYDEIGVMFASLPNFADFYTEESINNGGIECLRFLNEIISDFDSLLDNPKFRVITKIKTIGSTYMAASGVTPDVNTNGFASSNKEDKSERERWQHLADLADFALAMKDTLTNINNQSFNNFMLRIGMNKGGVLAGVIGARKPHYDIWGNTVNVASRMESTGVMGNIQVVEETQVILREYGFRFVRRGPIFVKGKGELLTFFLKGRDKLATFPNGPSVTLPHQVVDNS
UniProt Q9NZ32, whole entry, looked up: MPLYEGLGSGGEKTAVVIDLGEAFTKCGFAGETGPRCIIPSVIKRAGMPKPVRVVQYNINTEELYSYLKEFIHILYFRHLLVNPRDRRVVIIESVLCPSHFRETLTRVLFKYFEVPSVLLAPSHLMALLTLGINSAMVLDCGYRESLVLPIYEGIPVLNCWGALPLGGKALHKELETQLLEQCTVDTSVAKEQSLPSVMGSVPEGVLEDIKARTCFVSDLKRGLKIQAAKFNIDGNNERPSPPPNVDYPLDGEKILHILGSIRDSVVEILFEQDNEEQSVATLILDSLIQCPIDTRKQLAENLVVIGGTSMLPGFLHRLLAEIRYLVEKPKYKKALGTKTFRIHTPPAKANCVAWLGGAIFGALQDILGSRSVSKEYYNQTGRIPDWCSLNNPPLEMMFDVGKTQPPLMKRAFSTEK
UniProt O95490: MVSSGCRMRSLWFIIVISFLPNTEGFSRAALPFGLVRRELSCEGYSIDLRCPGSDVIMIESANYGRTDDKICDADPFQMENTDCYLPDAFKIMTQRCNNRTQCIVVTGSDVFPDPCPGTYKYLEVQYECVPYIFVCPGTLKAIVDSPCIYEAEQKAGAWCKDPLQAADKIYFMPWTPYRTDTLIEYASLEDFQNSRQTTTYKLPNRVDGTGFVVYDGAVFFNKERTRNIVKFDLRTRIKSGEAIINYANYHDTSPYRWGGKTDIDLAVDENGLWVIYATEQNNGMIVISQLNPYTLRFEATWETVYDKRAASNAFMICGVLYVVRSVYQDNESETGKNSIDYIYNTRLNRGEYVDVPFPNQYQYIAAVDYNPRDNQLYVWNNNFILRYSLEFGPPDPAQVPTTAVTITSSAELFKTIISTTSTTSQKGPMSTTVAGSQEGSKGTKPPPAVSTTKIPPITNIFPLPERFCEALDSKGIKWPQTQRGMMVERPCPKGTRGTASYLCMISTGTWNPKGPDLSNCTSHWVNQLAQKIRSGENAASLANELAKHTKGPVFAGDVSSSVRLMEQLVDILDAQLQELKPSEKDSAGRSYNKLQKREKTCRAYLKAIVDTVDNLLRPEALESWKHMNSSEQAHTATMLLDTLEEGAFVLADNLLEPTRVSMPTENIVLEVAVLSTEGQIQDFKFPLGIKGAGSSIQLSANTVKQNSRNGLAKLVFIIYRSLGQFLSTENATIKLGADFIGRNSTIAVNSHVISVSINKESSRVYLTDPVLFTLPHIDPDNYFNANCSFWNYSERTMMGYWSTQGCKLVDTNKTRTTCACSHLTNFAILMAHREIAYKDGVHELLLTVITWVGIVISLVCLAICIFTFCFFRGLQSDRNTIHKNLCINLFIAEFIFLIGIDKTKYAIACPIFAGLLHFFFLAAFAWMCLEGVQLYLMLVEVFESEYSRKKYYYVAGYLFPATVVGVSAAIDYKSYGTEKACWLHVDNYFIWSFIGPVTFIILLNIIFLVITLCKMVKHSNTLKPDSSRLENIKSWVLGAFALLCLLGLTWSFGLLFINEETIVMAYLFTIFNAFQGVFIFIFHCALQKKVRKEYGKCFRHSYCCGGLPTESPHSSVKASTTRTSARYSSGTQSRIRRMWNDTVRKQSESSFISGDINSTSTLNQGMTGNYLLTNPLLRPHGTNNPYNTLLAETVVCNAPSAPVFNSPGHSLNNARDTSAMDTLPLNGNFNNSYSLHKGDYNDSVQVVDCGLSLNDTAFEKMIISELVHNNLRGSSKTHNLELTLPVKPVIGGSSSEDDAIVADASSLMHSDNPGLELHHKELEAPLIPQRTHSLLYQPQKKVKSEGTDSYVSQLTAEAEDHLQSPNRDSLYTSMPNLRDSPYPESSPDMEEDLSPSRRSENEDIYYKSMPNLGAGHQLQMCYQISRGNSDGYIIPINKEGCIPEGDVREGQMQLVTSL
UniProt Q13444: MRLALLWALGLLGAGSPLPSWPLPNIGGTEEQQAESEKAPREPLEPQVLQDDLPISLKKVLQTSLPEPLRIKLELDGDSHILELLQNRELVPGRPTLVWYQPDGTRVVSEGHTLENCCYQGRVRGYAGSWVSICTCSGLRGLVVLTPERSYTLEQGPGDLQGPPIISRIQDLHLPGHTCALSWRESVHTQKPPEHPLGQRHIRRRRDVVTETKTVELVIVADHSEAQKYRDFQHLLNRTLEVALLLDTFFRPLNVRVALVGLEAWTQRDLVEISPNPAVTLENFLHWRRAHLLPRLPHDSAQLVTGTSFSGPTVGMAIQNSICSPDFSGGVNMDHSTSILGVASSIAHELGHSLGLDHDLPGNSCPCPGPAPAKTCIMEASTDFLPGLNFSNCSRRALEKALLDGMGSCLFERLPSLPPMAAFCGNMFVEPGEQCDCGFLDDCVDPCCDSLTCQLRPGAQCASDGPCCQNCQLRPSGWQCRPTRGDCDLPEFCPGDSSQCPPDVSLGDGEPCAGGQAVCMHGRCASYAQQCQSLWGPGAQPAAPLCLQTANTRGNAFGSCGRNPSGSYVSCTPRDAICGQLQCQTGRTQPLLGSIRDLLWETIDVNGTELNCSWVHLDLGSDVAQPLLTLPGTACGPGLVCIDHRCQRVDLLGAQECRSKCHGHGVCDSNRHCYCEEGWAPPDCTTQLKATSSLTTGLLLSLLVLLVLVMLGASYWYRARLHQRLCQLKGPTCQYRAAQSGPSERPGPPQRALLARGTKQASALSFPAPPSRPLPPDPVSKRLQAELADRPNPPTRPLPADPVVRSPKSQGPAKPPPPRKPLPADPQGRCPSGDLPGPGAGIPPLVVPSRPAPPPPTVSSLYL
UniProt P51825: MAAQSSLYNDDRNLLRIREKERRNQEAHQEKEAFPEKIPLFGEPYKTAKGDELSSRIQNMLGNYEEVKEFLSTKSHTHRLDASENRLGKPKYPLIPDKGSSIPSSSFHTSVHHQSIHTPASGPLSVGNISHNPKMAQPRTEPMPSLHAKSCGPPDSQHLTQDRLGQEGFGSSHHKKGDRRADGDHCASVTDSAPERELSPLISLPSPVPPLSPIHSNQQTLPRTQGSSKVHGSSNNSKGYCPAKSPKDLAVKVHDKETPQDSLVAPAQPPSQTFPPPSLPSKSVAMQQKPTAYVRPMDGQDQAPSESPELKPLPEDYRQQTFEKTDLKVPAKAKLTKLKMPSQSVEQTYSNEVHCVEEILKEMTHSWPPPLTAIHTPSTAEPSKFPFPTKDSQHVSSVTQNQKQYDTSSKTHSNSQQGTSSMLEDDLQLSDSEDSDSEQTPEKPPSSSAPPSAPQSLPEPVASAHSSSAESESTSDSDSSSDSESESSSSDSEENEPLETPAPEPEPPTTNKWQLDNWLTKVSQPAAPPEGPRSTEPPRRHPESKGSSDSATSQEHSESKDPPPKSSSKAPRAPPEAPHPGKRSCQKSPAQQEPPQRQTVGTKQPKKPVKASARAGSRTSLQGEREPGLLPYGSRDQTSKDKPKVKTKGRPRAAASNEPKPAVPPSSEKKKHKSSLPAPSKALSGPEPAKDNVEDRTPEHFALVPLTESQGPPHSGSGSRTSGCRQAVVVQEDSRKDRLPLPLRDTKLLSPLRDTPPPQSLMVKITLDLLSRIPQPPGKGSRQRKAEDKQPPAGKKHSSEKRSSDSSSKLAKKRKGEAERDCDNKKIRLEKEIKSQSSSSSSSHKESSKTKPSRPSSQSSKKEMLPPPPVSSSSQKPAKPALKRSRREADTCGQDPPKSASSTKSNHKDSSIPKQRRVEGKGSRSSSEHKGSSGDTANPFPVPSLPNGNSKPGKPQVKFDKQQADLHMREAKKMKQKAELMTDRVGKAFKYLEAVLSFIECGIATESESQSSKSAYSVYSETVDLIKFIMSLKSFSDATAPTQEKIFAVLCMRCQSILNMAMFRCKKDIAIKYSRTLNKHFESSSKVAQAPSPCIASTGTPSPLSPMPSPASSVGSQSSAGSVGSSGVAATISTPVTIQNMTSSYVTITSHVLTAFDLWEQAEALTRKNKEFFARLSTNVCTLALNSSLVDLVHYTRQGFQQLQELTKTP
UniProt P33121: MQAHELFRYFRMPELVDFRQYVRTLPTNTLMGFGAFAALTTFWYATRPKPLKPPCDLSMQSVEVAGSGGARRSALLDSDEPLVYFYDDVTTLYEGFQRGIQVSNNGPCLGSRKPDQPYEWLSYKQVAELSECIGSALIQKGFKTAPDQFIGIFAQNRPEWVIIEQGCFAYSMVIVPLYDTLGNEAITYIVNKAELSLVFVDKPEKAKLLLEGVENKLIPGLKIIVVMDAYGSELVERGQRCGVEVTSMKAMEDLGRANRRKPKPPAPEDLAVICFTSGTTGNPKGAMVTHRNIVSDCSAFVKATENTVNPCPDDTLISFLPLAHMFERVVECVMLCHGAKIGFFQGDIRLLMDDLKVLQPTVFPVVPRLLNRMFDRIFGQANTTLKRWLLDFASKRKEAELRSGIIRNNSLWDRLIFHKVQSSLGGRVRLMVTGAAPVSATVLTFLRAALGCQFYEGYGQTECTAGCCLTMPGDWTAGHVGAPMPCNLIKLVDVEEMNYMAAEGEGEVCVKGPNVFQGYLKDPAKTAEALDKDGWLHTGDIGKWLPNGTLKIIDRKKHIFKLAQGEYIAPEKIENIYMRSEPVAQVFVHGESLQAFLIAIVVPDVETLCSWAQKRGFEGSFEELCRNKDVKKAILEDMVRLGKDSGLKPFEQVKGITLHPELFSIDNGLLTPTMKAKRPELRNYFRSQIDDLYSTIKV

Results on 36 targets are retold here after the supplement of paper PMC12067093, “Discovery and optimisation of a covalent ligand for TRIM25 and its application to targeted protein ubiquitination” (Chemical Science, 2025).
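Note: competitive profiling in live THP-1 cells: cysteine peptides tagged with an iodoacetamide desthiobiotin (IA-DTB) probe, intensity after compound treatment relative to DMSO-treated cells.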

Compound in this experiment: Cc1cc(ccc1-c1ccccc1)C(=O)N1CCCN(CC1)C(=O)CCl [compound 10]
In words: probe-labelled cysteine peptide fold change vs DMSO (competition) (log2 fold change); higher = less target engagement (more negative = stronger competition). Particulars: 10 µM; THP-1; incubation time: 4 h.
Consider “ACTR2_P61160_11_KVVVCDNGTGFVK (UniProt P61160)”, for which the “probe-labelled cysteine peptide fold change” value was -0.129.
Turning to “ADAM10_O14672_632_TITLQPGSPCNDFR (UniProt O14672)”, the “probe-labelled cysteine peptide fold change” value is -0.0399.
In the case of ADH5_P11766_111_TNLCQK (UniProt P11766), the “probe-labelled cysteine peptide fold change” value is -0.0131.
On to “ADAR_P55265_304_ICDYLFNVSDSSALNLAK (UniProt P55265)”, for which the “probe-labelled cysteine peptide fold change” value amounted to 0.183.
For “ADSS_P30520_58_VVDLLAQDADIVCR (UniProt P30520)”, the “probe-labelled cysteine peptide fold change” value amounted to 0.0609.
On to “ADNP_Q9H2P0_79_TKPFCCSACPFSSK (UniProt Q9H2P0)”, for which the “probe-labelled cysteine peptide fold change” value was -0.0136.
For “ACSS3_Q9H6R3_602_GHVPLALCVLR (UniProt Q9H6R3)”, the “probe-labelled cysteine peptide fold change” value worked out at 0.137.
For “ADH5_P11766_100_AGDTVIPLYIPQCGECK (UniProt P11766)”, the “probe-labelled cysteine peptide fold change” value worked out at 0.208.
In the case of “ADK_P55263_140+143_AAEAHVDAHYYEQNEQPTGTCAACITGDNR (UniProt P55263)”, the “probe-labelled cysteine peptide fold change” value is -0.278.
With “ACTL6A_O96019_152_EKLTELMFEHYNIPAFFLCK (UniProt O96019)” the figure was 0.164; with “ADA_P00813_262_LRQENMHFEICPWSSYLTGAWKPDTEHAVIR (UniProt P00813)”, -0.101; with “ACSL3_O95573_450_LLLCGGAPLSATTQR (UniProt O95573)”, -0.0957.
On to “ADCY3_O60266_479_CDYLEEK (UniProt O60266)”, for which the “probe-labelled cysteine peptide fold change” value is -0.234.
For “ACTR10_Q9NZ32_215_TCFVSDLK (UniProt Q9NZ32)”, the “probe-labelled cysteine peptide fold change” value is -0.0292.
With “ADGRL2_O95490_807_TMMGYWSTQGCK (UniProt O95490)” the figure was -0.117; with “ADH5_P11766_97_AGDTVIPLYIPQCGECK (UniProt P11766)”, -0.0779; with “ADAR_P55265_909_GDSLSLKGETVNDCHAEIISR (UniProt P55265)”, -0.134.
For the target “ACTL6A_O96019_152_LTELMFEHYNIPAFFLCK (UniProt O96019)”, the “probe-labelled cysteine peptide fold change” value turned out to be 0.0933.
Consider “ACY1_Q03154_116_CVSIQYLEAVRR (UniProt Q03154)”, for which the “probe-labelled cysteine peptide fold change” value is -0.0698.
For “ADAM15_Q13444_179_IQDLHLPGHTCALSWR (UniProt Q13444)”, the “probe-labelled cysteine peptide fold change” value was -0.0576.
Turning to “AGFG1_P52594_32_CFDCDQR (UniProt P52594)”, the “probe-labelled cysteine peptide fold change” value is -0.00729.
For the target “AFF1_P51825_355_MPSQSVEQTYSNEVHCVEEILK (UniProt P51825)”, the “probe-labelled cysteine peptide fold change” value is -0.261.
Turning to “ACSL1_P33121_274_RKPKPPAPEDLAVICFTSGTTGNPK (UniProt P33121)”, the “probe-labelled cysteine peptide fold change” value was determined as 0.064.
For “ADRM1_Q16186_121_TDQDEEHCR (UniProt Q16186)”, the “probe-labelled cysteine peptide fold change” value was -0.244.
On to “ADSL_P30566_99_LRHDVMAHVHTFGHCCPK (UniProt P30566)”, for which the “probe-labelled cysteine peptide fold change” value was -0.236.
Consider “ADAR_P55265_851_CFNTLTNSFQPSLLGR (UniProt P55265)”, for which the “probe-labelled cysteine peptide fold change” value is -0.0671.
Consider “ADAR_P55265_125_GVDCLSSHFQELSIYQDQEQR (UniProt P55265)”, for which the “probe-labelled cysteine peptide fold change” value was -0.101.
As to “AGL_P35573_399_LINYHQEQAVNCLLGNVFYER (UniProt P35573)”, the “probe-labelled cysteine peptide fold change” value worked out at 0.173.
Turning to “ACP2_P11117_349_CPLQDFLR (UniProt P11117)”, the “probe-labelled cysteine peptide fold change” value was -0.0584.
The result for “ADAM17_P78536_630_KGKPCTVGFCDMNGK (UniProt P78536)” reads -0.213.
On to “AGK_Q53H12_72_ATVFLNPAACK (UniProt Q53H12)”, for which the “probe-labelled cysteine peptide fold change” value is 0.0964.
Consider “ADAR_P55265_392_RNAEFLTCNIPTSNASNNMVTTEK (UniProt P55265)”, for which the “probe-labelled cysteine peptide fold change” value was -0.0948.
“ACOX3_O15254_426_EACGGHGYLAMNR (UniProt O15254)”: the “probe-labelled cysteine peptide fold change” value is -0.132.
Regarding “ADPRHL2_Q9NX46_132_CRDVFEPAR (UniProt Q9NX46)”, the “probe-labelled cysteine peptide fold change” value was -0.136.
With “ADA2_Q9NZK5_408_DIPIEVCPISNQVLK (UniProt Q9NZK5)” the figure was -0.147; with “ADAR_P55265_519_NPISGLLEYAQFASQTCEFNMIEQSGPPHEPR (UniProt P55265)”, 0.0898.
